Assay results published in the supplement of paper PMC3682954.
Where “and” joins values, the source holds several entries; their conditions need not be identical. Equal entries are not always repeated. Structures can show the parent of a compound that is named as a salt. ± gives the standard deviation of the averaged measurements. The list shows a part of the results. Repeats are few or missing, and single values can be far off.

Test system: RAW 264.7
Test: HMGB1-induced TNF-alpha production relative to HMGB1-stimulated control; higher = more TNF-alpha secretion (less inhibition)
Details: stimulus: HMGB1 5 ug/ml, 18 h
[1] = compound concentration: 1 ug/ml

SMILES	HMGB1-induced TNF-alpha production (compound concentration: 3 uM)	HMGB1-induced TNF-alpha production [1] [%]
N[C@H](C(=O)O)[C@H]1C[C@@H]1C(=O)O [(2S,1'S,2'S)-2-(carboxycyclopropyl)glycine]	81.5%	–
C=C(c1ccc(C(=O)O)cc1)c1cc2c(cc1C)C(C)(C)CCC2(C)C [Bexarotene]	100%	–
C#C[C@]1(O)CC[C@H]2[C@@H]3CCC4=C(CCC(=O)C4)[C@H]3CC[C@@]21C	87.7%	–
C#C[C@]1(O)CC[C@H]2[C@@H]3CCC4=C(CCC(=O)C4)[C@H]3CC[C@@]21C [Norethynodrel]	68.7%	–
CC(C)(C)NCC(O)c1cc(O)cc(O)c1 (centres undefined)	46.9%	–
CC(C)(C)NCC(O)c1cc(O)cc(O)c1 (centres undefined) [Terbutaline hemisulfate]	50.4 ± 12%	–
NS(=O)(=O)c1cc2c(cc1Cl)NC(CC1CCCC1)NS2(=O)=O (centres undefined) [Cyclopenthiazide]	81.5%	–
O=C(O)CCCCC1CCSS1 (racemic) [DL-Thioctic acid]	–	86.7
O=C(O)CCCCC1CCSS1 (racemic) [(±)-alpha-Lipoic Acid]	101%	–
CCOC(=O)[N-]c1c[n+](N2CCOCC2)no1 [Molsidomine]	91 ± 22%	–
CCOC(=O)[N-]c1c[n+](N2CCOCC2)no1	88.2%	–
CC[N+](CC)(CC)CCOc1cccc(OCC[N+](CC)(CC)CC)c1OCC[N+](CC)(CC)CC	71.5%	–
CC[N+](CC)(CC)CCOc1cccc(OCC[N+](CC)(CC)CC)c1OCC[N+](CC)(CC)CC [Gallamine triethiodide]	82.3 ± 4.2%	–
CO[C@H]1[C@H](O)[C@@H](O)[C@@H](O)[C@H](O)[C@@H]1O [D-Pinitol ;  3-O-Methyl-D-chiro-inositol]	–	66.1
CN[C@@H]1[C@H](O[C@H]2[C@H](O[C@H]3[C@H](O)[C@@H](O)[C@H](NC(=N)N)[C@@H](O)[C@@H]3NC(=N)N)O[C@@H](C)[C@]2(O)CO)O[C@@H](CO)[C@H](O)[C@H]1O [Dihydrostreptomycin sulfate]	93.8%	–
CN[C@@H]1[C@H](O[C@H]2[C@H](O[C@H]3[C@H](O)[C@@H](O)[C@H](NC(=N)N)[C@@H](O)[C@@H]3NC(=N)N)O[C@@H](C)[C@]2(O)CO)O[C@@H](CO)[C@H](O)[C@H]1O	81%	–
NCc1ccc(S(N)(=O)=O)cc1 [Mafenide hydrochloride]	106%	–
NCc1ccc(S(N)(=O)=O)cc1	96.1%	–
CCc1oc2ccccc2c1C(=O)c1cc(Br)c(O)c(Br)c1 [Benzbromarone]	48.6%	–
CC/C(=C(\c1ccccc1)c1ccc(OCCN(C)C)cc1)c1ccccc1	81.2%	–
CC/C(=C(\c1ccccc1)c1ccc(OCCN(C)C)cc1)c1ccccc1 [Tamoxifen]	79.8 ± 4.3%	–
CC/C(=C(\c1ccccc1)c1ccc(OCCN(C)C)cc1)c1ccccc1 [Tamoxifen citrate]	75.7 ± 22%	–
CCCCC[C@H](O)/C=C/[C@H]1[C@H](O)CC(=O)[C@@H]1CCCCCCC(=O)O [Alprostadil]	48.7 ± 5.4%	–
CCCCC[C@H](O)/C=C/[C@H]1[C@H](O)CC(=O)[C@@H]1CCCCCCC(=O)O [Prostaglandin E1]	54.6%	–
O=C(O)c1cccnc1C(=O)O [Quinolinic acid]	111%	–
O=C(O)c1ccccc1	99.3%	–
CCN1CCC[C@H]1CNC(=O)c1c(O)c(Cl)cc(Cl)c1OC [Raclopride]	87.9 ± 15%	–

SMILES	HMGB1-induced TNF-alpha production (compound concentration: 3 uM)	HMGB1-induced TNF-alpha production [1] [%]
CN(CC[C@@H](Oc1ccc(C(F)(F)F)cc1)c1ccccc1)CC(=O)[O-].[Li+]	88.3%	–
C=CC(C)(O)CCCC(C)CCCC(C)CCCC(C)C (centres undefined) [Isophytol]	–	69.3
CCOc1ccc(NC(C)=O)cc1	90%	–
CCOc1ccc(NC(C)=O)cc1 [Phenacetin]	72.8%	–
CN1CCC[C@@H]1CCO[C@](C)(c1ccccc1)c1ccc(Cl)cc1	67.9%	–
CN1CCC[C@@H]1CCO[C@](C)(c1ccccc1)c1ccc(Cl)cc1 [Clemastine fumarate]	71.4 ± 11%	–
CN1CCC[C@@H]1CCO[C@](C)(c1ccccc1)c1ccc(Cl)cc1 [Clemastine]	102%	–
O=C(c1ccc(OCCCc2c[nH]cn2)cc1)C1CC1 [Ciproxifan hydrochloride]	87.5%	–
CC(C(=O)O)c1ccc(C(=O)c2cccs2)cc1 (centres undefined) [Suprofen]	123%	–
CC(C(=O)O)c1ccc(C(=O)c2cccs2)cc1 (centres undefined)	81.7%	–
COc1cc2ncnc(Nc3ccc(F)c(Cl)c3)c2cc1OCCCN1CCOCC1 [Gefitinib]	112 ± 17%	–
O=c1ccn([C@@H]2O[C@H](COP(=O)(O)OP(=O)(O)OP(=O)(O)O)[C@@H](O)[C@H]2O)c(=O)[nH]1 [Uridine 5'-triphosphate trisodium salt hydrate]	–	75.6
CN(C)c1ccc(C(=C2C=CC(=[N+](C)C)C=C2)c2ccc(N(C)C)cc2)cc1	74.1%	–
COc1ccc(CC2c3cc(OC)c(OC)cc3CC[N+]2(C)CCC(=O)OCCCCCOC(=O)CC[N+]2(C)CCc3cc(OC)c(OC)cc3C2Cc2ccc(OC)c(OC)c2)cc1OC (centres undefined) [Atracurium besylate]	76%	–
COc1ccc(CC2c3cc(OC)c(OC)cc3CC[N+]2(C)CCC(=O)OCCCCCOC(=O)CC[N+]2(C)CCc3cc(OC)c(OC)cc3C2Cc2ccc(OC)c(OC)c2)cc1OC (centres undefined) [Atracurium]	67.1%	–
COc1ccc(CC2c3cc(OC)c(OC)cc3CC[N+]2(C)CCC(=O)OCCCCCOC(=O)CC[N+]2(C)CCc3cc(OC)c(OC)cc3C2Cc2ccc(OC)c(OC)c2)cc1OC (centres undefined)	97.5%	–
CC(=O)[C@H]1CC[C@H]2[C@@H]3CC=C4C[C@@H](O)CC[C@]4(C)[C@H]3CC[C@]12C	82.7%	–
CC(=O)[C@H]1CC[C@H]2[C@@H]3CC=C4C[C@@H](O)CC[C@]4(C)[C@H]3CC[C@]12C [Pregnenolone]	72 ± 7%	–
Oc1cc2c(cc1O)[C@@H]1c3ccc(O)c(O)c3OC[C@]1(O)C2 [Hematoxylin]	–	78.1
CCN(CCO)CCCC(C)Nc1ccnc2cc(Cl)ccc12 (centres undefined)	78.2%	–
CCCCN1CCCCC1C(=O)Nc1c(C)cccc1C (centres undefined) [Bupivacaine]	82.2%	–
CCCCN1CCCCC1C(=O)Nc1c(C)cccc1C (centres undefined) [Bupivacaine hydrochloride]	65.4%	–
CCCCN1CCCCC1C(=O)Nc1c(C)cccc1C (centres undefined)	70.5%	–
CCOC(=O)NNc1nncc2ccccc12	66.2%	–
CCOC(=O)NNc1nncc2ccccc12 [Todralazine hydrochloride]	81.5%	–
CC(C)(C)c1ccc(C(O)CCCN2CCC(C(O)(c3ccccc3)c3ccccc3)CC2)cc1 (centres undefined)	80.5%	–
CC(C)(C)c1ccc(C(O)CCCN2CCC(C(O)(c3ccccc3)c3ccccc3)CC2)cc1 (centres undefined) [Terfenadine]	94.8 ± 14%	–

SMILES	HMGB1-induced TNF-alpha production (compound concentration: 3 uM)	HMGB1-induced TNF-alpha production [1] [%]
CC(COc1ccccc1)NC(C)C(O)c1ccc(O)cc1 (centres undefined) [Isoxsuprine hydrochloride]	45.7%	–
CC(COc1ccccc1)NC(C)C(O)c1ccc(O)cc1 (centres undefined)	60.6%	–
N[C@@H](Cc1ccc(O)c(I)c1)C(=O)O [3-Iodo-L-tyrosine]	99.6%	–
O=C(O)[C@H]1O[C@@H](Oc2cc3oc(-c4ccccc4)cc(=O)c3c(O)c2O)[C@H](O)[C@@H](O)[C@@H]1O [Baicalin hydrate]	–	57
Nc1ccc(S(=O)(=O)Nc2ccccn2)cc1 [Sulfapyridine]	108%	–
Nc1ccc(S(=O)(=O)Nc2ccccn2)cc1	85.6%	–
CO[C@H]1C[C@H](O[C@H]2[C@H](C)[C@@H](O[C@@H]3O[C@H](C)C[C@H](N(C)C)[C@H]3O)[C@@H](C)C[C@@]3(CO3)C(=O)[C@H](C)[C@@H](O)[C@@H](C)[C@@H](C)OC(=O)[C@@H]2C)O[C@@H](C)[C@@H]1O	85.5 ± 3.5%	–
O=c1[nH]c(=O)c2ccccc2o1	98.7%	–
Nc1ncnc2c1ncn2C1CCCO1 (centres undefined)	99.1%	–
Nc1ccn([C@@H]2O[C@H](CO)[C@@H](O)[C@@H]2O)c(=O)n1 [Cytosine-1-beta-D-arabinofuranoside hydrochloride]	116%	–
Nc1ccn([C@@H]2O[C@H](CO)[C@@H](O)[C@@H]2O)c(=O)n1	79.7 ± 2.2%	–
Nc1ccn([C@@H]2O[C@H](CO)[C@@H](O)[C@@H]2O)c(=O)n1 [Cytarabine]	104 ± 30%	–
O=C(NCCO)c1ccc2c(c1)nc(Nc1cccc(Cl)c1)c1ccncc12 [CK2 Inhibitor 2]	74.2%	–
COc1ccnc(C[S+]([O-])c2nc3cc(OC(F)F)ccc3[nH]2)c1OC (centres undefined)	96.2% and 83%	–
COc1ccnc(C[S+]([O-])c2nc3cc(OC(F)F)ccc3[nH]2)c1OC (centres undefined) [Pantoprazole]	81.5%	–
C[N+](C)(C)[C@@H](Cc1c[nH]c(=S)[nH]1)C(=O)[O-] [Ergothioneine]	89%	–
O=c1[nH]cnc2c1ncn2[C@@H]1O[C@H](CO)[C@@H](O)[C@H]1O [Inosine]	–	80
O=c1[nH]cnc2c1ncn2[C@@H]1O[C@H](CO)[C@@H](O)[C@H]1O	94.1%	–
CCOc1ccccc1OC(c1ccccc1)C1CNCCO1 (centres undefined) [Reboxetine mesylate]	100%	–
O=C1NC(=O)/C(=C/c2ccc3c(c2)OC(F)(F)O3)S1	71.4%	–
OC[C@H]1O[C@@H](n2cnc3c(N[C@H]4CCC[C@@H]4O)ncnc32)[C@@H](O)C1O (stereo partly drawn) [Adenosine, N-(2-hydroxycyclopentyl)-, (1S-trans)- [CAS]]	98.2%	–
CCCCOc1cc(CC2CNC(=O)N2)ccc1OC (centres undefined)	73.3% and 65.4%	–
CC(C)Cn1c(=O)n(C)c(=O)c2[nH]cnc21 [3-Isobutyl-1-methylxanthine]	112%	–
COc1cc([C@@H]2c3cc4c(cc3[C@@H](O[C@@H]3O[C@@H]5CO[C@@H](c6cccs6)O[C@H]5[C@H](O)[C@H]3O)[C@H]3COC(=O)[C@H]23)OCO4)cc(OC)c1O	86.3 ± 16%	–
COc1ccc(-c2coc3ccc(OC4OC(COC(C)=O)C(OC(C)=O)C(OC(C)=O)C4OC(C)=O)c(OC(C)=O)c3c2=O)cc1 (centres undefined)	–	59.9

Not a retest: an excerpt of the list.
SMILES	HMGB1-induced TNF-alpha production (compound concentration: 3 uM)	HMGB1-induced TNF-alpha production [1] [%]
N[C@@H](Cc1ccc(O)c(I)c1)C(=O)O [3-Iodo-L-tyrosine]	99.6%	–
O=C(O)[C@H]1O[C@@H](Oc2cc3oc(-c4ccccc4)cc(=O)c3c(O)c2O)[C@H](O)[C@@H](O)[C@@H]1O [Baicalin hydrate]	–	57
